Data source: PubChem BioAssay AID504774 (Drosophila RNAi Screening Center, 2011)
The deposit covers about 23,000 reagents; this is a random part of those with a known target gene and a result. 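Values are quantile-normalised luminescence on an arbitrary scale; higher means more cells surviving MMS.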 The numbers tell different reagents against one gene apart. A plus sign joins genes that one reagent is predicted to hit.

- Aim: 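Fly genes whose loss alters survival after alkylation damage to DNA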 (primary screen)
- Cells: Drosophila Kc167 cells
- Knock-down reagent: long dsRNA against Drosophila genes, about 0.25 µg dsRNA per well
- Timing: about 6 days: 3 days knock-down, then 3 days with or without MMS
- Treatment: methyl methanesulphonate 0.004% (w/v) for 3 days after knock-down
- Read-out: 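ATP-dependent luminescence as a measure of live cells in MMS-exposed wells, quantile normalised within each plate, with replicate values also given as a mean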
- Direction: mean viability with MMS and viability with MMS: higher = more surviving cells after MMS

The first 7 entries, to show the layout:
| predicted target | dsRNA no. | mean viability with MMS | viability with MMS, replicate 1 | viability with MMS, replicate 2 |
| --- | --- | --- | --- | --- |
| CG13526 | 1 | 3.74e6 | 4.25e6 | 4.19e6 |
| CG12713 | 1 | 3.51e6 | 3.98e6 | 3.97e6 |
| Strica (Ser/Thr-rich caspase) | 1 | 3.57e6 | 4.00e6 | 4.12e6 |
| Dhc64C (Dynein heavy chain 64C) | 1 | 3.42e6 | 3.87e6 | 3.90e6 |
| CG17666 | 1 | 3.58e6 | 4.08e6 | 4.01e6 |
| LamC (Lamin C) | 1 | 3.56e6 | 3.99e6 | 4.10e6 |
| kermit | 1 | 3.64e6 | 4.26e6 | 4.02e6 |

Results, repeating the preview:
| predicted target | dsRNA no. | mean viability with MMS | viability with MMS, replicate 1 | viability with MMS, replicate 2 |
| --- | --- | --- | --- | --- |
| CG13526 | 1 | 3.74e6 | 4.25e6 | 4.19e6 |
| CG12713 | 1 | 3.51e6 | 3.98e6 | 3.97e6 |
| Strica (Ser/Thr-rich caspase) | 1 | 3.57e6 | 4.00e6 | 4.12e6 |
| Dhc64C (Dynein heavy chain 64C) | 1 | 3.42e6 | 3.87e6 | 3.90e6 |
| CG17666 | 1 | 3.58e6 | 4.08e6 | 4.01e6 |
| LamC (Lamin C) | 1 | 3.56e6 | 3.99e6 | 4.10e6 |
| kermit | 1 | 3.64e6 | 4.26e6 | 4.02e6 |
| Cyp6a16Psi (retired record) | 1 | 3.52e6 | 3.98e6 | 4.00e6 |
| GluClalpha (Glutamate-gated chloride channel subunit alpha) | 1 | 3.62e6 | 3.97e6 | 4.23e6 |
| Alk (Anaplastic lymphoma kinase) | 1 | 3.69e6 | 4.03e6 | 4.09e6 |
| Alk (Anaplastic lymphoma kinase) | 2 | 3.14e6 | 3.51e6 | 3.49e6 |
| mino (minotaur) | 1 | 3.50e6 | 3.95e6 | 4.00e6 |
| CG1801 | 1 | 3.42e6 | 3.82e6 | 3.93e6 |
| CG33770 | 1 | 3.34e6 | 3.81e6 | 3.70e6 |
| CG10910 | 1 | 3.56e6 | 4.03e6 | 4.09e6 |
| Srx (Sulfiredoxin) | 1 | 3.66e6 | 4.16e6 | 4.10e6 |
| thr (three rows) | 1 | 3.15e6 | 3.62e6 | 3.69e6 |
| fzr2 (fizzy-related 2) | 1 | 3.40e6 | 4.12e6 | 3.89e6 |
| CG11617 | 1 | 3.57e6 | 4.00e6 | 4.11e6 |
| CG11617 | 2 | 3.23e6 | 3.75e6 | 3.80e6 |
| CG31816 | 1 | 3.60e6 | 3.95e6 | 4.18e6 |
| CG8892 | 1 | 3.62e6 | 4.15e6 | 4.08e6 |
| PGRP-SB1 (Peptidoglycan recognition protein SB1) | 1 | 3.55e6 | 4.06e6 | 4.00e6 |
| Xport-A + Xport-B | 1 | 3.62e6 | 4.05e6 | 4.14e6 |
| hubl (hug-bell) | 1 | 3.55e6 | 3.96e6 | 4.08e6 |
| AnxB10 (Annexin B10) | 1 | 3.56e6 | 4.00e6 | 4.07e6 |
| Vha100-5 (Vacuolar H[+] ATPase 100kD subunit 5) | 1 | 3.45e6 | 4.03e6 | 3.77e6 |
| Eps-15 (Epidermal growth factor receptor pathway substrate clone 15) | 1 | 3.23e6 | 2.49e6 | 4.09e6 |
| UK114 | 1 | 3.71e6 | 4.21e6 | 4.12e6 |
| Frq1 (Frequenin 1) | 1 | 3.55e6 | 4.00e6 | 4.06e6 |
| CG4229 | 1 | 3.46e6 | 3.79e6 | 4.03e6 |
| hpRNA:CR18854 + IP3K1 | 1 | 3.77e6 | 4.49e6 | 4.10e6 |
| CG33284 | 1 | 3.59e6 | 4.01e6 | 4.09e6 |
| CG7945 | 1 | 3.50e6 | 4.00e6 | 3.92e6 |
| Drip | 1 | 3.74e6 | 4.07e6 | 4.47e6 |
| wol (wollknaeuel) | 1 | 3.59e6 | 4.25e6 | 3.89e6 |
| Cyp12a4 (Cytochrome P450 12a4) | 1 | 3.43e6 | 3.99e6 | 3.82e6 |
| CG12817 + CG12420 | 1 | 3.47e6 | 4.05e6 | 3.87e6 |
| CG3088 | 1 | 3.43e6 | 3.92e6 | 3.86e6 |
| elB (elbow B) | 1 | 3.58e6 | 4.07e6 | 4.03e6 |
| elB (elbow B) | 2 | 3.64e6 | 4.10e6 | 4.13e6 |
| CG13721 | 1 | 3.81e6 | 4.33e6 | 4.27e6 |
| cato (cousin of atonal) | 1 | 3.54e6 | 3.95e6 | 4.07e6 |
| RpL7-like + CG34164 | 1 | 3.57e6 | 3.85e6 | 3.86e6 |
| RpL7-like + CG34164 | 2 | 3.69e6 | 4.21e6 | 4.10e6 |
| FeCH (Ferrochelatase) | 1 | 3.62e6 | 4.24e6 | 3.96e6 |
| CG13731 | 1 | 3.50e6 | 3.96e6 | 3.97e6 |
| stg (string) | 1 | 3.17e6 | 3.75e6 | 3.71e6 |
| sofe | 1 | 3.51e6 | 3.83e6 | 4.12e6 |
| CG33461 | 1 | 3.42e6 | 3.96e6 | 3.89e6 |
| CG7715 | 1 | 3.59e6 | 4.09e6 | 4.05e6 |
| CG6569 | 1 | 3.44e6 | 3.90e6 | 3.92e6 |
| CG12116 | 1 | 3.58e6 | 4.13e6 | 4.01e6 |
| ItgaPS5 (Integrin alphaPS5 subunit) | 1 | 3.72e6 | 4.26e6 | 4.15e6 |
| qless | 1 | 3.39e6 | 3.87e6 | 3.75e6 |
| qless | 2 | 3.42e6 | 3.85e6 | 3.84e6 |
| Capr (Caprin) | 1 | 3.60e6 | 4.03e6 | 4.13e6 |
| E(var)3-9 (Enhancer of variegation 3-9) | 1 | 3.55e6 | 3.98e6 | 4.07e6 |
| E(var)3-9 (Enhancer of variegation 3-9) | 2 | 3.52e6 | 4.02e6 | 4.00e6 |
| Dic4 | 1 | 3.34e6 | 3.79e6 | 3.73e6 |
| CG1314 | 1 | 3.60e6 | 4.02e6 | 4.16e6 |
| NHP2 | 1 | 3.46e6 | 3.98e6 | 3.84e6 |
| eIF4B (eukaryotic translation initiation factor 4B) | 1 | 3.54e6 | 4.04e6 | 3.98e6 |
| CG14840 | 1 | 3.51e6 | 4.06e6 | 3.90e6 |
| CG3517 | 1 | 3.38e6 | 3.82e6 | 3.88e6 |
| CG42686 (retired record) | 1 | 2.87e6 | 3.57e6 | 3.55e6 |
| CG42686 (retired record) | 2 | 3.65e6 | 4.20e6 | 4.07e6 |
| CG42686 (retired record) | 3 | 3.57e6 | 3.91e6 | 4.20e6 |
| CG13837 | 1 | 3.59e6 | 4.15e6 | 3.99e6 |
| CG9300 | 1 | 3.44e6 | 3.85e6 | 3.92e6 |
| CG12093 | 1 | 3.37e6 | 3.80e6 | 3.86e6 |
| Pld3 (Phospholipase D family member 3) | 1 | 3.58e6 | 4.10e6 | 3.99e6 |
| CG5024 | 1 | 3.63e6 | 4.02e6 | 4.21e6 |
| Eglp1 (Entomoglyceroporin 1) | 1 | 3.64e6 | 4.03e6 | 4.19e6 |
| CG5160 | 1 | 3.58e6 | 3.96e6 | 4.14e6 |
| Art2 (Arginine methyltransferase 2) | 1 | 3.44e6 | 3.94e6 | 3.86e6 |
| CG31126 | 1 | 3.74e6 | 4.34e6 | 4.13e6 |
| CG31274 + MESK4 | 1 | 3.45e6 | 3.95e6 | 3.87e6 |
| Atg2 (Autophagy-related 2) | 1 | 3.35e6 | 3.82e6 | 3.81e6 |
| ple (pale) | 1 | 3.33e6 | 3.67e6 | 3.80e6 |
| Arp5 (Actin-related protein 5) | 1 | 3.79e6 | 4.26e6 | 4.24e6 |
| CG3735 | 1 | 3.45e6 | 3.84e6 | 3.79e6 |
| CG13010 | 1 | 3.45e6 | 3.90e6 | 3.89e6 |
| Cp190 (Centrosomal protein 190kD) | 1 | 3.41e6 | 3.82e6 | 3.87e6 |
| CG7968 | 1 | 3.58e6 | 4.04e6 | 4.07e6 |
| Cpr23B (Cuticular protein 23B) | 1 | 3.40e6 | 3.86e6 | 3.79e6 |
| beat-IIIa (beaten path IIIa) | 1 | 3.57e6 | 4.05e6 | 4.02e6 |
| beat-IIIa (beaten path IIIa) | 2 | 3.60e6 | 4.10e6 | 4.04e6 |
| beat-IIIa (beaten path IIIa) | 3 | 3.46e6 | 3.99e6 | 3.86e6 |
